## Primary screen of a compound library

Data taken from ChEMBL document CHEMBL3988442, “University of Dundee, Small-Polar-MMV Screening Library” (2021).

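Growth of Mycobacterium tuberculosis over 4 days (cholesterol / DPPC medium with tyloxapol); the read-out is not stated. Compounds at 500 µM. Direction is inferred from retests: higher values go with more growth inhibition. About 18,000 compounds were tested under these conditions; 5% (about 900) showed 50% or more at least once.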

The filed quantity is “Percent Effect” (%).
The controls that fix the scale are not given in the record; negative values are as filed.
The compounds are a random part of those screened.

| # | Compound | percent effect |
|---|---|---|
| 1 | `CSCc1cccc(C(=O)NC2CCN(C)CC2)c1` | -15.01 |
| 2 | `Cc1noc(C)c1CN1CCC(CC(N)=O)CC1` | -9.346 |
| 3 | `O=S(=O)(NCCO)N1CCNCC1` | 1.238 |
| 4 | `CCCS(=O)(=O)NCc1cccc(OCCN(C)C)c1` | 19.62 |
| 5 | `Cc1ccoc1C(=O)N1CCCN(CC(N)=O)CC1` | -0.1776 |
| 6 | `CC[C@@]1(O)CCN(C(=O)c2cccnc2OC)C[C@H]1O` | 10.73 |
| 7 | `Fc1ccc(C2CCNC2)nc1` (stereo not drawn) | 2.071 |
| 8 | `CCS(=O)(=O)N1CC(F)(F)C[C@H]1c1nc(C)no1` | -4.434 |
| 9 | `CCC(=O)NCCc1noc(COC)n1` | -6.858 |
| 10 | `CN(Cc1nccn1C1CC1)CC1(C)COC1` | 15.08 |
| 11 | `CS(=O)(=O)CC1(CNCc2ccsc2)CC1` | 14.29 |
| 12 | `Cc1cnc(N[C@@H](CC(C)C)C(N)=O)nc1N(C)C` | 7.372 |
| 13 | `CNC(=O)CCc1ccc2c(c1)OCCCO2` | -8.521 |
| 14 | `Cc1nccn1CCN(C)CC(=O)Nc1ccn(C)n1` | 3.311 |
| 15 | `CC(=O)c1ccc(C(=O)NCC(=O)C(C)(C)C)cc1` | 3.838 |
| 16 | `Cc1nc2c(o1)CCCC2O` (stereo not drawn) | -7.876 |
| 17 | `N#Cc1cccc(CN)c1F` | 2.848 |
| 18 | `COCC(C)NC(=O)c1cccc(NS(C)(=O)=O)c1` (stereo not drawn) | 0.5178 |
| 19 | `CC1CN(C2CCN(c3ccncc3Cl)CC2)CCO1` (stereo not drawn) | 1.89 |
| 20 | `CN1CCC(Sc2nc3cc(Br)cnc3[nH]2)C1=O` (stereo not drawn) | -2.888 |
| 21 | `COCc1cccc(C(=O)N2CC[C@@](C)(O)[C@@H](O)C2)n1` | -2.624 |
| 22 | `Cc1ncccc1CN1CCCCC1(C)C(N)=O` (stereo not drawn) | -8.231 |
| 23 | `CN(C)C(=O)CS(=O)(=O)Cc1ccccc1C(F)(F)F` | 7.626 |
| 24 | `O=C(CN1CCN(C2CC2)CC1)NCc1ccco1` | 13.36 |
| 25 | `O=C(c1cccc(-n2cccn2)n1)N1CCCC1` | 59.17 |
| 26 | `CC(=O)NC(c1nc(-c2ccncc2)no1)C(C)C` (stereo not drawn) | 11.42 |
| 27 | `C[S+]([O-])c1nncn1Cc1ccccc1Cl` (stereo not drawn) | 18.65 |
| 28 | `Cc1c[nH]c2ccccc2c1=N` | -41.67 |
| 29 | `CS(=O)(=O)N1CCN(CCCOc2ccccc2)CC1` | -10.41 |
| 30 | `CC(C)(C)C(=O)Nc1cccc(N2CCCC2=O)c1` | 4.276 |
| 31 | `O=S(=O)(NCCNCc1sccc1Cl)c1cccnc1` | -2.286 |
| 32 | `Nc1nccnc1C(=O)NCc1cc(Br)cs1` | 52.77 |
| 33 | `COCCNC(C)(C)CO` | 5.905 |
| 34 | `COc1cc(CN)c(Br)cn1` | -1.649 |
| 35 | `NCC1CN(c2nc3cc(Cl)ccc3o2)CCO1` (stereo not drawn) | 10.19 |
| 36 | `CCCc1nc(C(=O)NCCS(=O)(=O)N(C)C)cs1` | 10.46 |
| 37 | `N[C@@H]1C[C@H]1c1cccc(F)c1F` | 14.25 |
| 38 | `CC(C)NC(=O)CNCc1ccccc1OC(F)F` | 24.21 |
| 39 | `CCN(CC)C(=O)CCC(=O)NCc1c[nH]nc1C` | -12.74 |
| 40 | `COCCN(C)CCNC(=O)c1ccc(C)s1` | -15.39 |
| 41 | `CCCNC(=O)CSCc1nc(-c2ccccc2)no1` | 76.68 |
| 42 | `CN(C)S(=O)(=O)CC(=O)NC1CCN(CC2CC2)C1` (stereo not drawn) | 5.542 |
| 43 | `NC(=O)CN1CCOC(c2ccc(Cl)s2)C1` (stereo not drawn) | 29.58 |
| 44 | `N#Cc1cccc(OCCn2cnc(C#N)n2)c1` | 48.99 |
| 45 | `CC(C)CC(C)(CN)NS(C)(=O)=O` (stereo not drawn) | 4.721 |
| 46 | `COCC(=O)Nc1c[nH]nc1C1CCCNC1` (stereo not drawn) | -7.091 |
| 47 | `Cc1noc(C)c1CN1CCNC(=O)C1c1cccs1` (stereo not drawn) | 8.506 |
| 48 | `CNC1CCN(C(=O)Cc2cc(F)ccc2F)CC1` | -0.3232 |
| 49 | `NC(=O)c1cccnc1SC1CCCC1` | 10.97 |
| 50 | `CN(C)C(=O)OCCN` | 5.067 |